# According to PubChem BioAssay AID1508600 (Functional Genomics Laboratory (NCATS/FGL), 2020):
# Screen size: about 53,000 sequences; about 3,700 (7%) were called active.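 Rule for the calls: active = gene knockdowns whose robust z-score for IL-1 alpha signal is at least 2 or at most -2, so actives lie on both sides; inactive = the rest.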 The list shows a part of the results.
# Assay: Components of the Cytosolic LPS Sensing Pathway: Gene Identification via Genome-wide siRNA Screen;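 note: robust z of the log signal after scaling to non-targeting control siRNA wells of the plate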
# Details: RAW264.7 macrophages, IL-1a HTRF, actives lie on both sides, screened at 100 nM (by protocol), cells primed 5 h with Pam3CSK4 first
# In short: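 IL-1a HTRF of supernatants after 24 hour LipidA transfection of Pam3CSK4-primed (5 hours) RAW264.7 cells, 48h post-siRNA transfection (100 nM). Scores: percent of plate negative-control median, then log-based robust z-score.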
row,Sequence,z-score
1,CCUCUUAAACAUGUCCUAGTT against Atp6v0a2,inactive: -1.04
2,GCAUAAUGGAUGGAAAGUCTT against Tasp1,inactive: 1.1
3,GGACAAUGAGCUCUCCUUCTT against Abi3,inactive: 1.21
4,GGGCUGACUAUUAUUUCAGTT against Cysltr2,inactive: -0.107
5,GGGUCAAACGACUUAGAAATT against Col5a2,inactive: -0.775
6,CCUUCUGUAUAGGUUCUGGTT against Slc41a3,inactive: 0.716
7,CGAUAUUGAUGAUCUAGUCTT against Kdm4a,inactive: 0.576
8,AUGGAAAAAGUGCACAAUCTT against Olfr1061,active: 2.34
9,GGUCAAGUUCGCCAUUAAATT against 2310022A10Rik,inactive: -0.283
10,GGAACCGUAGCUUGUCUGCTT against Rgp1,inactive: 0.907
11,GGGAAUGUAGACAUGGAAUTT against Tas1r3,inactive: 1.15
12,GGAUGUUGUAGCAGCUGCGTT against Olfr353,inactive: -0.204
13,GCCUUAACCACAAUUAAAATT against Etfrf1,inactive: -0.578
14,GGUUAACUCCUUUUCUAGATT against Ints13,inactive: -0.52
15,CGAGCAAGCUUCUACAUACTT against AI182371,inactive: 0.438
16,GGUAAUUGAGUUUGACGAUTT against Ptprf,inactive: 0.585
17,CCUCUAGACCGAAUGAAAATT against Zfyve16,inactive: 0.472
18,GGAUACAAUCCGAAUGAUGTT against Lyrm2,inactive: 0.484
19,GGAUUUGGCAAAAUCUUCCTT against Rnpc3,inactive: 0.481
20,GGAGGGCAAGAUAGAUGAGTT against Fas,inactive: -0.0778
21,GGAUAGACUUGAUUCUUGGTT against Emid1,inactive: 0.491
22,CGUGAAGUUGCAUGUAUUUTT against Rabepk,inactive: 0.0478
23,GGGAAAGGGUUUUUUAUUCTT against Slc1a1,inactive: -0.177

row,Sequence,z-score
1,GGAGAGAGUUGUUCAGUUATT against Olfr619,inactive: -0.31
2,GGUAUUAAGUUCCUGUAAUTT against Ahcyl2,inactive: -1.62
3,GGGUAUUCCUUCCAACACCTT against Lrrc4,active: -2.14
4,CCCACCACAAGCUAAUACATT against Ubac1,inactive: -0.0826
5,GGAUGAUAUGCUGUUAGUGTT against Il17rc,inactive: -1.59
6,GGAUAAGCAUGAUGACAGUTT against Wbp11,inactive: -1.74
7,GGUCUCCCUUCAGUAUGAGTT against Cela3b,inactive: -0.602
8,GGGCUACUAUUCAUUGAUCTT against 4930550L24Rik,inactive: 1.94
9,GGAUCAGAUUCUGAAGAGATT against Vcl,inactive: 0.0133
10,GGACUUCUUAUGGAAAAGATT against Xlr5c,inactive: -0.942
11,GGGAGCUAAUGAGCAAGGATT against Galk1,active: 2.5
12,GCACCAUUCUAGGAGUCAUTT against Lonp2,inactive: -0.504
13,GGACCCUUAUGACCCUCAUTT against Irf3,inactive: -0.49
14,GCUAAGAUGAUGUCCUUGUTT against Ifi27,inactive: -0.655
15,GGAGCACUUAGAAAUGUCCTT against Olfr342,inactive: -0.174
16,GCCUUAGGAUGCAUCUUGUTT against Smarcad1,inactive: 0.229
17,GGGAAAGACUCAAGGUCCUTT against Olfr586,inactive: 0.774
18,GCUGGCGGAGCAAACUCAATT against Foxd3,inactive: 0.756
19,GGGAAUUUAUAGCUUCAGCTT against Cbln2,inactive: -0.385
20,GGCUCAAGAAAUUCUGGACTT against Noxo1,inactive: 1.02
21,GCUCAGAAUGCAGGUCGUATT against Scgb2b2,inactive: -0.276
22,GGCUUCUUCACUGAAAUUCTT against 1700074P13Rik,inactive: -1.1
23,GGAAAGUGUUCCGAAUAUUTT against Zc3hc1,inactive: -0.12

row,Sequence,z-score
1,GGAAGAUAACUCCUAUGUCTT against Acad12,inactive: -1.72
2,GGAAACCUGUGUAUGAUUGTT against Olfr1022,inactive: -1.63
3,GGGUUUGAGAAUUUGAAGCTT against Dscaml1,inactive: -0.539
4,GGGUCAGAUUGCUAUCCUCTT against Mfsd5,inactive: 0.256
5,GGAUUCUGAAAUCAGUGCUTT against Capn8,inactive: 1.52
6,GGACAUUUUUCAUUUGUGATT against Zfhx4,inactive: 1.28
7,GCUGACUAAGGCUUGUAAUTT against Hrnr,inactive: -0.194
8,GGCAAUUACCCACCCUGUUTT against Mfsd6,active: -2.57
9,GCUUCGCUUUUAGGUAUAUTT against Rpl27,inactive: 0.466
10,GGCCCUCACAAUGAAUAUGTT against Efs,inactive: -0.115
11,GCCUCUCUGGUGAACUUAGTT against Ccar1,inactive: 0.0406
12,GGUGAAGUCUCCAAAGAGUTT against Ms4a4d,inactive: 0.539
13,GGAUUGUGUUUGAGUCUCATT against Phyhd1,inactive: -0.934
14,GGAAACAGCCCACUGGAAATT against Ndufs2,inactive: 1.07
15,GGUGUUAGCUUCUCAAAAUTT against Cltrn,inactive: 0.497
16,GCUAGAAAGAGUUAAUCUATT against Wdr11,inactive: -0.616
17,CGAGCUAUACGGAAAAAAATT against Efcab12,inactive: -1.03
18,GGAAUCAUCUUCAUUGACCTT against Agpat1,inactive: 0.0827
19,GGAAAAAUUGAAGUUGAUCTT against Iqcj,inactive: -1.35
20,GGAACUCCUGACUCUCAGATT against Htra2,inactive: -1.19
21,CCGUCUUUGUGCUAUGCUGTT against Sstr4,inactive: 1.56
22,CCCUCUAAAGCAUGAGUGUTT against Tspan32,inactive: 0.624

# Five entries drawn at random from those above, as already listed:
row,Sequence,z-score
3,GGGUUUGAGAAUUUGAAGCTT against Dscaml1,inactive: -0.539
12,GGUGAAGUCUCCAAAGAGUTT against Ms4a4d,inactive: 0.539
18,GGAAUCAUCUUCAUUGACCTT against Agpat1,inactive: 0.0827
9,GGAUCAGAUUCUGAAGAGATT against Vcl,inactive: 0.0133
13,GCCUUAACCACAAUUAAAATT against Etfrf1,inactive: -0.578
